In PubChem BioAssay AID192 (DTP/NCI, 2004):
The list does not hold the whole screen: it is rich in T/C values a quarter to a half above the control, in often repeated tests (any T/C) and in doses without a T/C. Further doses and runs are listed elsewhere. T/C gives the treated animals as a percentage of the vehicle group. Some entries give survivors of the animals treated and no T/C: the source files T/C as zero there, which appears to mark a toxic dose or a test without result, not a measured value. Some doses without a T/C left all or most animals alive at the check, yet need not have been tolerated: the source hardly ever lists a survival T/C far under the control, and the zero likely stands for such cases as well. Survivors were counted at the toxicity check, usually on the fifth day, unless a day is given; later deaths do not show. Schedules are NCI's codes, read here as Q, the interval in days (D) or hours (H), X, the number of doses. Counts like (3×) count equal records among those shown. Some entries hold several experiments; the results are listed from low to high. Some molecules as drawn cover several salts, stereoisomers or complexes of the source; a dose is that of the sample tested. For survival time, the PubChem record calls one and a half times the control and up active, and a quarter to a half above the control has no call in these data; cut-offs in other NCI protocols can differ. Some T/C values carry the count of animals alive at the toxicity check (mostly the fifth day); where none is given, no animal had died by that day. Square brackets hold non-standard residues; d marks the D form. Peptide text beside a SMILES is read from it. * marks the point of attachment. ξ: configuration not given here. ξAsp(βξ-Me) = CC(C(=O)O)C(N)C(=O)O; X4 = CC(N*)C1NC(=O)C2CCCCN2C1=O; ξAbu(3ξ-NH2) = CC(N)C(N)C(=O)O; X3 = CCC(C)CCC/C=C/CC(=O)*

Test system: BDF1 mice, B16 melanoma ip, median survival T/C
Assay: NCI In Vivo Anticancer Drug Screen. Data for tumor model B16 Melanoma (intraperitoneal) in B6D2F1 (BDF1) mice
Settings: T/C endpoint: median survival time, higher T/C = longer survival
In short: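 Values are ratios of treated (T) to vehicle-control (C) measurements of survival or tumor size in tumor-bearing mice.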

[1] = dose: 50.0 mg/kg/injection, schedule: Q01DX009 (ip), vehicle: Klucel (hydroxypropylcellulose) (HPC)
[2] = dose: 50.0 mg/kg/injection, schedule: Q01DX009 (ip), vehicle: saline
[3] = dose: 100.0 mg/kg/injection, schedule: Q01DX009 (ip), vehicle: Klucel (hydroxypropylcellulose) (HPC)
[4] = dose: 100.0 mg/kg/injection, schedule: Q01DX009 (ip), vehicle: saline
[5] = dose: 200.0 mg/kg/injection, schedule: Q01DX009 (ip), vehicle: Klucel (hydroxypropylcellulose) (HPC)
[6] = dose: 200.0 mg/kg/injection, schedule: Q01DX009 (ip), vehicle: saline with Tween-80
[7] = dose: 200.0 mg/kg/injection, schedule: Q01DX009 (ip), vehicle: saline
[8] = dose: 400.0 mg/kg/injection, schedule: Q01DX009 (ip), vehicle: Klucel (hydroxypropylcellulose) (HPC)
[9] = dose: 400.0 mg/kg/injection, schedule: Q01DX009 (ip), vehicle: saline with Tween-80
[10] = dose: 400.0 mg/kg/injection, schedule: Q01DX009 (ip), vehicle: saline
[11] = dose: 100.0 mg/kg/injection, schedule: Q04DX003 (ip), vehicle: saline
[12] = dose: 12.5 mg/kg/injection, schedule: Q01DX009 (ip), vehicle: saline with Tween-80
[13] = dose: 25.0 mg/kg/injection, schedule: Q01DX009 (ip), vehicle: saline with Tween-80
[14] = dose: 50.0 mg/kg/injection, schedule: Q01DX009 (ip), vehicle: saline with Tween-80
[15] = dose: 0.12 mg/kg/injection, schedule: Q01DX009 (ip), vehicle: saline
[16] = dose: 0.25 mg/kg/injection, schedule: Q01DX009 (ip), vehicle: saline

C[C@]12C=CC(=O)C=C1CC[C@@H]1[C@@H]2C(=O)C[C@@]2(C)[C@H]1CC[C@]2(O)C(=O)CO
T/C [1]: 89, 92, 93, 107 (2×), 108 [5 of 6 alive], 109, 110, 115, 117, 118, 121 % of control | T/C (dose: 50.0 mg/kg/injection, schedule: Q01DX009 (ip), vehicle: saline with Tween-80, evaluated on day 45): 88, 102, 113 % of control | T/C (dose: 50.0 mg/kg/injection, schedule: Q01DX009 (ip), vehicle: saline with Tween-80, evaluated on day 60): 90, 97, 102, 110, 113, 115 % of control (2×) | T/C [2]: 93, 102, 105 (3×), 111 % of control | survivor count [2]: 6 of 6 | T/C [3]: 89, 102, 102 [5 of 6 alive], 103, 113, 118, 120, 121 (2×), 123, 125, 140 % of control | T/C (dose: 100.0 mg/kg/injection, schedule: Q01DX009 (ip), vehicle: saline with Tween-80, evaluated on day 45): 89, 105, 114 % of control [5 of 6 alive] | T/C (dose: 100.0 mg/kg/injection, schedule: Q01DX009 (ip), vehicle: saline with Tween-80, evaluated on day 60): 102 [5 of 6 alive], 106, 107 [5 of 6 alive], 110, 114, 121, 140 % of control | T/C [4]: 91, 94, 102, 108 (2×), 109, 111 % of control | survivor count (dose: 100.0 mg/kg/injection, schedule: Q01DX009 (sc), vehicle: steroid suspending solution): 10 of 10 and 6 of 6 | T/C [5]: 93 (2×), 100 (2×), 110, 113, 113 [5 of 6 alive], 128 (2×), 132 % of control | survivor count [5]: 6 of 6 | T/C (dose: 200.0 mg/kg/injection, schedule: Q01DX009 (ip), vehicle: saline with Tween-80, evaluated on day 45): 100 and 102 % of control | T/C (dose: 200.0 mg/kg/injection, schedule: Q01DX009 (ip), vehicle: saline with Tween-80, evaluated on day 60): 90, 109, 112 [5 of 6 alive], 119, 120 % of control | survivor count [6]: 5 of 6 (2×) and 6 of 6 | T/C [7]: 100, 105, 108, 111 % of control [5 of 6 alive] | survivor count [7]: 6 of 6 | survivor count (dose: 200.0 mg/kg/injection, schedule: Q01DX009 (sc), vehicle: steroid suspending solution): 6 of 6 | survivor count (dose: 200.0 mg/kg/injection, schedule: Q01DX017 (sc), vehicle: steroid suspending solution): 10 of 10 | T/C [8]: 100, 102, 109 (2×), 110 [4 of 6 alive], 126, 138 % of control | survivor count [8]: 5 of 6 and 6 of 6 | T/C (dose: 400.0 mg/kg/injection, schedule: Q01DX009 (ip), vehicle: saline with Tween-80, evaluated on day 45): 89 % of control | T/C (dose: 400.0 mg/kg/injection, schedule: Q01DX009 (ip), vehicle: saline with Tween-80, evaluated on day 60): 87, 95, 102, 112 % of control [4 of 6 alive] | survivor count [9]: 6 of 6 (2×) | T/C [10]: 91 [5 of 6 alive], 116, 122 % of control | survivor count [10]: 4 of 6, 5 of 6, 6 of 6 | survivor count (dose: 400.0 mg/kg/injection, schedule: Q01DX009 (sc), vehicle: steroid suspending solution): 10 of 10 | survivor count (dose: 400.0 mg/kg/injection, schedule: Q01DX017 (sc), vehicle: steroid suspending solution): 10 of 10 | survivor count (dose: 800.0 mg/kg/injection, schedule: Q04DX003 (sc), vehicle: steroid suspending solution): 10 of 10 | survivor count (dose: 800.0 mg/kg/injection, schedule: Q04DX005 (sc), vehicle: steroid suspending solution): 10 of 10

CC(=O)NC(C=O)C(O)C(O)C(O)C(=O)O (centres undefined) (tested in a mixture with another compound)
survivor count (dose: 25.0 mg/kg/injection, schedule: Q01DX009 (ip), vehicle: Klucel (hydroxypropylcellulose) (HPC)): 3 of 10 | survivor count [1]: 5 of 10 | survivor count [3]: 0 of 10

CC(C)N(Cc1ccccc1)CC(O)c1ccc(Cl)cc1 (centres undefined)
survivor count [4]: 10 of 10

COc1cc(-c2ccc(N=Nc3ccc4c(S(=O)(=O)O)cc(S(=O)(=O)O)c(N)c4c3O)c(OC)c2)ccc1N=Nc1ccc2c(S(=O)(=O)O)cc(S(=O)(=O)O)c(N)c2c1O
survivor count [4]: 10 of 10 | survivor count [7]: 9 of 10 | survivor count [10]: 0 of 10

C1CCc2nnnn2CC1
survivor count [2]: 10 of 10 | survivor count [11]: 1 of 10 | survivor count (dose: 200.0 mg/kg/injection, schedule: Q04DX003 (ip), vehicle: saline): 0 of 10 | survivor count (dose: 400.0 mg/kg/injection, schedule: Q04DX003 (ip), vehicle: saline): 0 of 10

O=S(=O)(O)O.[O]=[V]
survivor count (dose: 6.25 mg/kg/injection, schedule: Q01DX009 (ip), vehicle: saline with Tween-80): 10 of 10 | survivor count [12]: 6 of 6 | survivor count [13]: 6 of 6

C[As](C)Sc1ncccn1
survivor count (dose: 12.5 mg/kg/injection, schedule: Q01DX009 (ip), vehicle: Klucel (hydroxypropylcellulose) (HPC)): 3 of 10

Clc1ccc2nc(CBr)cnc2c1
survivor count [12]: 6 of 6 | survivor count [13]: 6 of 6 | survivor count [14]: 4 of 6

C1=C(c2ccccc2)CCC1
survivor count [7]: 10 of 10

CCCCCCC(O)C/C=C\CCCCCCCCO (centres undefined)
T/C (dose: 75.0 mg/kg/injection, schedule: Q01DX009 (ip), vehicle: saline): 127 % of control | T/C (dose: 150.0 mg/kg/injection, schedule: Q01DX009 (ip), vehicle: saline): 125 % of control | survivor count (dose: 300.0 mg/kg/injection, schedule: Q01DX009 (ip), vehicle: saline): 8 of 10

CCCCCCCCCC(=O)OC(C)C(=O)N(CCCC)CCCC (centres undefined)
survivor count (dose: 100.0 mg/kg/injection, schedule: Q01DX009 (ip), vehicle: saline with Tween-80): 10 of 10 | survivor count [6]: 10 of 10 | survivor count [9]: 10 of 10

Cc1cccc(C2=NCCN2)c1C
T/C (dose: 10.0 mg/kg/injection, schedule: Q04DX003 (ip), vehicle: saline with Tween-80): 125 % of control

CC(C)C1=CC2=CCC3C(C)(C(N)=O)CCCC3(C)C2CC1CC#N (centres undefined)
survivor count (dose: 200.0 mg/kg/injection, schedule: Q04DX003 (ip), vehicle: saline with Tween-80): 10 of 10

CCC(C)CCC/C=C/CC(=O)NC(CC(=O)O)C(=O)NC(C(=O)NC(CC(=O)O)C(=O)NCC(=O)NC(CC(=O)O)C(=O)NCC(=O)NC(C(=O)NC(C(=O)N1CCCC1C(=O)NC(C)C1NC(=O)C2CCCCN2C1=O)C(C)C)C(C)N)C(C)C(=O)O (stereo not drawn) (X3-D[ξAsp(βξ-Me)]DGDG[ξAbu(3ξ-NH2)]VP-X4; configuration not given here)
survivor count (dose: 400.0 mg/kg/injection, schedule: Q01DX009 (ip), vehicle: saline + alcohol): 8 of 10

CC[N+](CC)(CC)CC
survivor count (dose: 6.0 mg/kg/injection, schedule: Q01DX009 (ip), vehicle: saline with Tween-80): 10 of 10 | survivor count (dose: 12.0 mg/kg/injection, schedule: Q01DX009 (ip), vehicle: saline with Tween-80): 10 of 10 | survivor count [4]: 0 of 10 | survivor count [11]: 3 of 10 | survivor count [7]: 0 of 10 | survivor count [10]: 0 of 10

COC(COC(N)=O)C1=C(N2CC2)C(=O)C(C)=C(N2CC2)C1=O (centres undefined)
T/C (dose: 0.06 mg/kg/injection, schedule: Q01DX009 (ip), vehicle: saline): 130 % of control [9 of 10 alive] | T/C [15]: 141 % of control | survivor count [15]: 10 of 10 | T/C [16]: 145 % of control | survivor count [16]: 6 of 10 | survivor count (dose: 0.5 mg/kg/injection, schedule: Q01DX009 (ip), vehicle: saline): 10 of 10 | survivor count (dose: 1.0 mg/kg/injection, schedule: Q01DX009 (ip), vehicle: saline): 9 of 10 and 10 of 10 | survivor count (dose: 2.0 mg/kg/injection, schedule: Q01DX009 (ip), vehicle: saline): 9 of 10

CCCCCCCCCCCCCCCc1ccc(C(=O)C[n+]2ccccc2)cc1
survivor count [14]: 10 of 10

CC(=O)OC1CCC(C2CCCCC2)CC1 (centres undefined)
survivor count [9]: 9 of 10
